Results published in US20220265798A1.
Results are given in words; binding and its absence hold for the method and conditions named. In cells and extracts the contact can be indirect. Some binding calls cover weakened binding; strength is not graded here.

The chains behind the UniProt entries cited, without tags or fusion partners. Residues count along the entry.
UniProt Q62432, residues 2-467: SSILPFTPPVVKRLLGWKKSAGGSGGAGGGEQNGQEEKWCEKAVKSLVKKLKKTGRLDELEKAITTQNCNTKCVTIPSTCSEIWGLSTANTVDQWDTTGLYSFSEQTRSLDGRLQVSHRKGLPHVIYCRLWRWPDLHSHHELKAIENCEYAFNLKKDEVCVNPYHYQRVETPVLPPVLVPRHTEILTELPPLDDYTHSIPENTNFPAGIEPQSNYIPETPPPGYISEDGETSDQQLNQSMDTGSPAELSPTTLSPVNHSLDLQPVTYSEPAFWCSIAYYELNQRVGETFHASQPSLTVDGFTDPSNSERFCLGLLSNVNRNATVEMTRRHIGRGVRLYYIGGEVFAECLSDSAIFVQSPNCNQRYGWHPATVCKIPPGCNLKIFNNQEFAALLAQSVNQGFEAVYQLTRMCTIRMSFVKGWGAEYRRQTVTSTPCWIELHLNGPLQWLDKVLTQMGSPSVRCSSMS

Legend:
p63 (mouse) [1] = molecular target: T1, p63 (mouse) (UniProt O88898); test: co-immunoprecipitation (FIG. 7D legend)
T1 sequence (looked up): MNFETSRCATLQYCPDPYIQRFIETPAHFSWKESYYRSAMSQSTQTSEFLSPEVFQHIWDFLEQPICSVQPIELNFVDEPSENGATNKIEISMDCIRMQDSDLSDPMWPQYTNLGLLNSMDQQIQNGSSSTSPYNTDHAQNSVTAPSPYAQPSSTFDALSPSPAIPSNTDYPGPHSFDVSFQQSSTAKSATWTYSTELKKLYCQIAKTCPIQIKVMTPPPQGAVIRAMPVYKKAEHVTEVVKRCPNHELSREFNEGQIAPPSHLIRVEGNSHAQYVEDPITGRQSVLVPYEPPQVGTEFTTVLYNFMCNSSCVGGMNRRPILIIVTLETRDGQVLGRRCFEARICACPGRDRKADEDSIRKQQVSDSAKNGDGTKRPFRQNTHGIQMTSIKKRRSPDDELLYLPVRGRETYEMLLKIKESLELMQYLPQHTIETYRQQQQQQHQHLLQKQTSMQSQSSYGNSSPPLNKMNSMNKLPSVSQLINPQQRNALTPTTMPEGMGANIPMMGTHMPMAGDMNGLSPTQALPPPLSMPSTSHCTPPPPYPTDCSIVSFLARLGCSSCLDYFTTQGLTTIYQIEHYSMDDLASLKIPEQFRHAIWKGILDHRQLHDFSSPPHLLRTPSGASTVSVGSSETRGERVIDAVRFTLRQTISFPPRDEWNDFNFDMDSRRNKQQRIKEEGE

p63 (mouse) [2] = molecular target: T1, p63 (mouse); test: co-immunoprecipitation from PPT cell extracts, western blot

binding (p63 (mouse) [1]): binds
binding (p63 (mouse) [2]): binds
Substance: Smad2 (from UniProt Q62432 2-467)
